Literature values in patent US11191719B2, “Controlled absorption water-soluble pharmaceutically active organic compound formulation for once-daily administration” (STI Pharma, LLC, priority 2011, dated 2021).

SMILES: COc1ccc2cc([C@H](C)C(=O)O)ccc2c1 [naproxen, (S)-6-methoxy-methyl-2-naphthaleneacetic acid]
- plasma naproxen concentration required for anti-inflammatory or analgesic effects: 30 to 90 µg/mL
- plasma naproxen levels at which pain reduction occurred (patients with rheumatoid arthritis): above 50 μg/mL
- plasma naproxen levels reported to reduce post partum pain (post partum pain): 30 to 70 µg/mL
